The chains are these.
B1: clonotype305 (EPOR/CD131 binder, Table 8) (antibody, V domains shown)
VH: EVHLVESGGGLVQPGRSLRLSCAASGFTFDEYAMHWVRQVPGKGLEWVSGISWNSGSIGYADSVKGRFTISRDNAKNSLYLQMNSLRAEDTALYYCAKDIFTGRAGYFDYWGQGTLVTVSS
VL: QSVLTQPPSVSGAPGQRVTISCTGSSSNIGAGYDVHWYQQLPGTAPKLLIYGNSNRPSGVPDRFSGSKSGTSASLAITGLQAEDEADYYCQSYDSSLSGWVFGGGTKLTVL
B2: clonotype304 (EPOR/CD131 binder, Table 8) (antibody, V domains shown)
VH: EVQLVESGGGLVKPGGSLRLSCAASGFTFSRYSMNWVRQAPGKGLEWVSSIISSTSYIYYADSVKGRFTISRDNAKNSLYLQMNSLRAEDTAVYYCARETPVTLFDAFDIWGQGTMVTVSS
VL: B1 VL with G32R, Q40L, T44S, G52D, N55D, K68R, Y89F, W100S
B3: clonotype298 (EPOR/CD131 binder, Table 8) (antibody, V domains shown)
VH: QVQLVQSGSEVKKPGASVKVSCKASGYTFTGYYMYWVRQAPGQGLEWMGWINPNSGGTNYAQKFQDRVTMTRDTSISTAYMELSRLRSDDTAIYYCARDLDYYGSGNYDYWGQGTLVTVSS
VL: SSELTQDPAVSVALGQTVRITCQGDSLRSYYASWYQQKPGQAPVLVIYGKNNRPSGIPDRFSGSSSGNTASLTITGAQAEDEADYYCNSRDSSDNHRVFGGGTKLTVL
B4: clonotype292 (EPOR/CD131 binder, Table 8) (antibody, V domains shown)
VH: QVQLQESGPGLVKPSETLSLTCTVSGGSISDYYWNWIRQPPGKGLEWIGYISSRGRTNYNPSLKSRVTLSVDSSKNQFSLKLTSVTAADTAVFYCARGRHFDWLLSYFDYWGQGTLVTVSS
VL: B3 VL with D94G, R97Y, G101T, L105V
B5: clonotype294 (EPOR/CD131 binder, Table 8) (antibody, V domains shown)
VH: EVQLVESGGGLVKPGGSLRLSCAASGFTFSSYSMNWVRQAPGKGLEWVSSISSSSSYIYYADSVKGRFTISRDNAKNSLYLQMNSLRAEDTAVYYCARDRYNWNYRYFDLWGRGTLVTVSS
VL: B3 VL with D94G, R97L
B6: clonotype301 (EPOR/CD131 binder, Table 8) (antibody, V domains shown)
VH: QVQLQQSGPGLVKPSQTLSLTCAISGDNVSSNSAAWNWIRQSPSRGLEWLGRTYYRSKWYNDYAVSVKSRITINPDTSKNQFSLHLNSVTPEDTALYYCARDWNFAFDIWGQGTMVTVSS
VL: B3 VL with D94G, R97L
B7: clonotype293 (EPOR/CD131 binder, Table 8) (antibody, V domains shown)
VH: EVQLVESGGGLVKPGGSLRLSCAASGFTFSSDNMNWVRQAPGKGLEWVSSIGSSSSYIYYADSVKGRFTISRDNAKNSLYLQMNSLRAEDTAVYYCARDRAIVGATWFDPWGQGTLVIVSS
VL: B3 VL with S29N, V44I, D94Y, R97W
B8: clonotype296 (EPOR/CD131 binder, Table 8) (antibody, V domains shown)
VH: QVQLVQSGAEVKKPGASVKVSCKASGYTFTSYGISWVRQAPGQGLEWMGWISAYNGNTNYAQKLQGRVTMTTDTSTSTAYMELRSLRSDDTAVYYCARDGAARPPRYMDVWGKGTTVTVSS
VL: B3 VL with D94G, R97L
B9: clonotype300 (EPOR/CD131 binder, Table 8) (antibody, V domains shown)
VH: EVQLVESGGGLVQPGGSLRLSCAASGFTFSSYWMHWVRQAPGKGLVWVSRVNSDGSNTTYADSVKGRFTISRDNAKNTLYLQMNSLRAEDTAVYYCARNRDYHGSGSFDYWGQGTLVTVSS
VL: B3 VL with K50Q, D94G, R97W
B10: clonotype308 (EPOR/CD131 binder, Table 8) (antibody, V domains shown)
VH: EVQLVESGGGVVRPGGSLRLSCAASGFTFDDYGMSWVRQAPGKGLEWVSGINWNGGSTGYADSVKGRFTISRDNAKNSLYLQMNSLRAEDTALYYCARHFDWLLSNAFDIWGQGTMVTVSS
VL: QAVLTQPASLSASPGASASLTCTLRSGINVGTYRIYWYQQKPGSPPQYLLRYKSDSDKQQGSGVPSRFSGSKDASANAGILLISGLQSEDEADYYCMIWHSSASVVFGGGTKLTVL
B11: clonotype290 (EPOR/CD131 binder, Table 8) (antibody, V domains shown)
VH: QVQLVQSGAEVKKPGASVKVSCKASGYTFTSYDINWVRQATGQGLEWMGWMNPNSGNTGYAQKFQGRVTMTRNTSISTAYMELSSLRSEDTAVYYCARGYYDFWSGPFDYWGQGTLVTVSS
VL: SYELTQPPSVSVSPGQTARITCSGDALPKKYAYWYQQKSGQAPVLVIYEDSKRPSGIPERFSGSSSGTMATLTISGAQVEDEADYYCYSTDSSGNRVFGGGTKLTVL
B12: clonotype302 (EPOR/CD131 binder, Table 8) (antibody, V domains shown)
VH: QVQLVQSGAEVKKPGASVKVSCKASGYTFTSYGITWVRQAPGQGLEWMGWISAYNGNTHYAQKLQGRVTMTTDTSTSTAYMDLRSLRSDDTAVYYCARTIFGVVNNWFDPWGQGTLVTVSS
VL: QSVLSQPPSVSEAPRQRVTISCSGSSSNIGYNAVNWYQQLPGKAPKLLISHDDLLPSGVSDRFSGSKSGTSASLAISGLQSDDEADYYCAAWDARLNGWVFGGGTKLTVL
B13: clonotype307 (EPOR/CD131 binder, Table 8) (antibody, V domains shown)
VH: QITLKESGPTLVKPTQTLTLTCTFSGFSISTSGVGVGWIRQPPGKALEWLAFIFWNDDKRYSPSLKSRLTITKDTSKNQVVLTMTNMDPVDTATYYCTHTEYGSSWSVDYWGQGTLVTVSS
VL: QAVLTQPASLSASPGASASLTCTLRSGINVGTSRIYWYQQKPGSPPQYLLRYKSDSDKHQDSGVPSRFSGSKDASANAGILLISGLQSEDEADYYCMIWHSSAVVFGGGTKLTVL
B14: clonotype309 (EPOR/CD131 binder, Table 8) (antibody, V domains shown)
VH: QVQLVQSGAEVKKPGASVKVSCKASGYTFTSYDINWVRQATGQGLEWMGWMNPNSGNTGYAQKFQGRVTMTRNTSISTAYMELSSLRSEDTAVYYCVRRITVVRGVISLDYWGQGTLVTVSS
VL: SYELTQPPSVSVSPGQTAIITCSGAKLGDKYACWYQKKPGQSPVMVIYQDRKRPSGIPERFSGSNSGNTATLTISGTQAMDEADYYCQAWDSSTAVFGGGTKLTVL
B15: anti-CD131 antibody clonotype14 (Table 6) (antibody, V domains shown)
VH: EVQLVESGGGVVRPGGSLRLSCAASGFTFDDYGMSWVRQAPGKGLEWVSGINWNGGSTGYADSVKGRFTISRDNAKNSLYLQMNSLRAEDTALYYCARERLTIFGVVNYYMDVWGKGTTVTVSS
VL: B1 VL
B16: anti-CD131 antibody clonotype8 (Table 6) (antibody, V domains shown)
VH: QLQLQESGPGLVKPSETLSLTCTVSGGSISSSSYYWGWIRQPPGKGLEWIGSIYYSGSTYYNPSLKSRVTISVDTSKNQFSLKLSSVTAADTAVYYCASLTGDRFDYWGQGTLVTVSS
VL: QSALTQPASVSGSPGQSITISCTGTSSDVGGYNYVSWYQQHPGKAPKLMIYEVSNRPSGVSNRFSGSKSGNTASLTISGLQAEDEADYYCSSYTSSSTVVFGGGTKLTVL
B17: anti-CD131 antibody clonotype36 (Table 6) (antibody, V domains shown)
VH: QVQLQQWGAGLLKPSETLSLTCAVYGGSFSGYYWSWIRQPPGKGLEWIGEINHSGSTNYNPSLKSRVTISVDTSKNQFSLKLSSVTAADTAVYYCAREGLLVGATLDAFDIWGQGTMVTVSS
VL: B3 VL with D94G, R97L, G101T, L105V
B18: anti-CD131 antibody clonotype25 (Table 6) (antibody, V domains shown)
VH: QVQLVQSGAEVKKPGASVKVSCKASGYTFTSYGISWVRQAPGQGLEWMGWISAYNGNTNYAQKLQGRVTMTTDTSTSTAYMELRSLRSDDTAVYYCARENSGSYYWFDPWGQGTLVTVSS
VL: QSALTQPPSASGSPGQSVTISCTGTSSDVGGYNYVSWYQQHPGKAPKLMIYEVSKRPSGVPDRFSGSKSGNTASLTVSGLQAEDEADYYCSSYAGSNNVVFGGGTKLTVL
B19: anti-CD131 antibody clonotype45 (Table 6) (antibody, V domains shown)
VH: QVQLQQWGAGLLKPSETLSLTCAVYGGSFSGYYWSWIRQPPGKGLEWIGEINHSGSTNYNPSLKSRVTISVDTSKNQFSLKLSSVTAADTAVYYCARTSLAAADFDYWGQGTLVTVSS
VL: B18 VL with V99Y, G103T, L107V
B20: anti-CD131 antibody clonotype52 (Table 6) (antibody, V domains shown)
VH: EVQLVESGGGLVKPGGSLRLSCIASGFTFSTYSMNWVRQAPGKGLEWVSSISGSSSYIYYSDSVKGRFTISRDNAKNSLYLQLNSLRAEDTAVYYCASHWGHFDYWGRGTLVTVSS
VL: SYELTQPLSVSVALGQTARITCGGNNIGSKNVHWYQQKPGQAPVLVIYRDSNRPSGIPERFSGSNSGNTATLTISRAQAGDEADYYCQVWDSSTVVFGGGTKLTVL
B21: anti-CD131 antibody clonotype16 (Table 6) (antibody, V domains shown)
VH: EVQLVESGGGLVQPGGSLKLSCAASGFTFSSSDMHWVRQTTGKGLEWVSAIYTTGDTYYPGSVKGRFTISRENAKNSLYLQMNSLRAGDTAVYYCARGYSGSYYGDFDYWGQGTLVTVSS
VL: B11 VL
B22: anti-CD131 antibody clonotype15 (Table 6) (antibody, V domains shown)
VH: EVQLVESGGGLVQPGGSLRLSCAASGFTFSSYSMNWVRQAPGKGLEWVSYISSSSSTIYYADSVKGRFTISRDNAKNSLYLQMNSLRDEDTAVYYCARDGWDYWGQGTLVTVSS
VL: SYELTQPSSVSVSPGQTARITCSGDVLAKKYARWFQQKPGQAPVLVIYKDSERPSGIPERFSGSSSGTTVTLTISGAQVEDEADYYCYSAADNNRVFGGGTKLTVL
B23: anti-CD131 antibody clonotype115 (Table 6) (antibody, V domains shown)
VH: EVQLVESGGGLVQPGGSLRLSCAASGFTFSSYDMHWVRQATGKGLEWVSAIGTAGDTYYPGSVKGRFTISRENAKNSLYLQMNSLRAGDTAVYYCARDRTLDYWGQGTLVTVSS
VL: SYELTQPPSVSVSPGQTARITCSGDALPKKYAYWYQQKSGQAPVLVIYEDSKRPSGIPERFSGSSSGTMATLTISGAQVEDEADYYCYSTDSSGNHWVFGGGTKLTVL

Protein sequences, listed by entry. Tags and fused reporters are not part of them. Residues count along the entry.
UniProt P32927, residues 17-443: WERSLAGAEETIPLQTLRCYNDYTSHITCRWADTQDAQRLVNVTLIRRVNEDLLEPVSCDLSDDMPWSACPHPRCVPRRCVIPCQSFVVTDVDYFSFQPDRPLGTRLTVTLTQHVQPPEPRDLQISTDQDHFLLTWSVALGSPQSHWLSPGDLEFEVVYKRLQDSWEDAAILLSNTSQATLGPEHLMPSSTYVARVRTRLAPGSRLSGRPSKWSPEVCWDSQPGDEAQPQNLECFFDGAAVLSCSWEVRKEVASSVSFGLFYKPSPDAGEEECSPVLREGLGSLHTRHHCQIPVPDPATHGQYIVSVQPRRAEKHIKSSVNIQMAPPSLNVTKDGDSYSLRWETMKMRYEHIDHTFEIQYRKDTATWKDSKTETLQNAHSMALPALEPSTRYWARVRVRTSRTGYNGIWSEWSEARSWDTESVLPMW

Among the data in patent publication US20250129170A1 are binding values, retold here.

Substitutions are numbered along the chain they refer to. These are yes or no findings as the source states them, for the method shown. Some entries that bind do so weakly or less than the wild type.

The first assay concerns the target hCD131-Fc (IME021, inhouse) (human) (UniProt P32927). Put plainly: B-cell sorting, labelled hEPOR-Fc and hCD131-Fc.
With B1, the binding result is “binds”. On the same count and under the same terms, the same measure for B2: “binds”; for B3: “binds”; for B4: “binds”.

Turning to B5, the binding entry is “binds”. Turning to B6, the binding result is reported as “binds”. The same measure, in the same setting: the value for B7 was “binds”.

Take B8: the binding result is given as “binds”.

As to B9, the binding result is on record as “binds”. Still for that read-out and setting: the value for B10 was “binds”; that for B11 was “binds”. Take B12: the binding result was “binds”. With B13, the binding entry is on record as “binds”.

For B14, the binding entry is reported as “binds”.

A further assay has the same target. The assay can be described thus: B-cell sorting with labelled hCD131-Fc, then single-cell sequencing.
In the case of B15, the binding entry is “binds”.

As for B16, the binding entry is reported as “binds”. On the same count and under the same terms, the same measure for B17: “binds”; for B18: “binds”; for B19: “binds”. On the same count and under the same terms, the same measure for B20: “binds”. The same measure, in the same setting: the same measure for B21: “binds”; for B22: “binds”.

For the molecule B23, the binding result is recorded as “binds”.
